No constants are given. Whether binding was seen depends on the method and setting. Binding seen in cells or lysates may run through a third protein. Some entries that bind do so weakly or less than the wild type. Tags and fused reporters may be left off the sequences shown.

Amino acid sequences for entries named in this document (tags omitted).
UniProt Q6DH13: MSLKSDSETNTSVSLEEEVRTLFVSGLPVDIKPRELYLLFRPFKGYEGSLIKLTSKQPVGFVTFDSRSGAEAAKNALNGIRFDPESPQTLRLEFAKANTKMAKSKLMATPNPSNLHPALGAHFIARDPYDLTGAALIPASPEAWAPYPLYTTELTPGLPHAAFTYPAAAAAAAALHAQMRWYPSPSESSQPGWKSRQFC

This passage reports binding results from paper PMC6049948.

The target in this test is T1, GFP-Bucky ball (zebrafish) (UniProt H0WFA5).
T1 sequence: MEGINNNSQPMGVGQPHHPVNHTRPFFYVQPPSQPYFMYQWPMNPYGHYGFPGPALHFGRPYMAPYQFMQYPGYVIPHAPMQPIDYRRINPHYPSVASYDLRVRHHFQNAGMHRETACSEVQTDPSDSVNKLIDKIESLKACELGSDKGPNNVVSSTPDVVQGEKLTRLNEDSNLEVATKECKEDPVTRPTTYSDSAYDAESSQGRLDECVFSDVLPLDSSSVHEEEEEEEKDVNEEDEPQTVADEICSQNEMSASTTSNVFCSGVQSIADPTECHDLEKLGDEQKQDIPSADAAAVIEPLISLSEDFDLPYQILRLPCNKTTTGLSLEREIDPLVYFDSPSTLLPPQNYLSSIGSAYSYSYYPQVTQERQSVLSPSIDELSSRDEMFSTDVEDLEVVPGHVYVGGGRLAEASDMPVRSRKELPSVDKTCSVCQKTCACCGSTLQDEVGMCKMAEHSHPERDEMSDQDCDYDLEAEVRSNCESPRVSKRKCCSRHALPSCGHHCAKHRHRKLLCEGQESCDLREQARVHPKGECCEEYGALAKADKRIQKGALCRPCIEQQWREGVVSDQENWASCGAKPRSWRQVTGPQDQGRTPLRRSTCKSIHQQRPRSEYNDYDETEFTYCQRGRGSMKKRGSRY
Briefly: co-IP; HEK293 cells co-transfected with pCS3-MT-Rbpms constructs and pCS3-GFP-Buc (or pCS3-GFP control); IP from the supernatant of cell lysates (including mRNA) with anti-GFP 3E6 antibody and Protein G magnetic beads; blotted with anti-Myc and anti-GFP.

Turning to “Myc-tagged zebrafish Rbpms2a (from UniProt Q6DH13 1-199)”, the binding entry is “binds”.
